# Laboratory results as given in patent US6548544B1, “Method of treatment of priapism without raising systemic blood pressure” (The National University of Singapore, priority 1999, dated 2003).
# Some results were stated once for a whole list of compounds, not compound by compound.
# System: Pharmacologically Induced Prolonged Erection (Pipe)
# Assay: Effect on papaverine- and phenoxybenzamine-induced prolonged erection (PIPE), penile length, baboons
# Format: in vivo, baboon
# Details: intracavernous papaverine (40 mg) or phenoxybenzamine (3 mg)
# Experimental: Six male baboons weighing between 8 kg and 12 kg were used for the experiment. The animals were sedated with ketamine and anaesthetised with intravenous pentobarbitone injected through an indwelling venous catheter. Drugs were injected into the right corpora cavornosa at the mid-third of the shaft using a 29G needle and 1 ml syringe. Blood pressure was monitored through a cannulated femoral artery connected to the transducer. A measuring tape was used to measure penile length visually from a marked point at the base of the penis to the tip of urethral orifice. Changes in penile length were recorded for a period of 100 min after injection.
# Intracavernous injection of papaverine (40 mg) or phenoxybenzamine (3 mg) which produced maximal penile length within 20 and 40 min were repeated one week later and prostaglandin A2 was given at the peak time of the turgidity.
# In baboons, intracavernous injection of papaverine (40 mg) or phenoxybenzamine (3 mg) produced a 130% increase in penile length within […] after administration (Table 1). This increase in penile length lasted for more than 100 min. […]
smiles,measurement,value
"CC(COc1ccccc1)N(CCCl)Cc1ccccc1 (stereo not shown) [Phenoxybenzamine, phenoxybenzamine]",duration of increase in penile length,more than 100 min
